Values joined by “and” are separate entries in the source; they are usually repeats but may differ in a detail not shown here. Equal values may be shown once. For at least one compound, name, drawing or mass did not settle the structure.
Columns and labels:
Type in all cases: physicochemical
[1] = Voltammetry, redox potential with respect to Ag/AgCl reference electrode; details: vs Ag/AgCl
[2] = Protoporphyrin IX triplet state quenching by laser flash photolysis
Experimental: To investigate if triplet states of protoporphyrin IX are quenched by the two compounds, laser flash photolysis experiments were performed. In these experiments, a deoxygenated acetonitrile solution of protoporphyrin IX is excited with short laser pulses from a Nd-YAG laser (355 nm, 5 ns pulse width). Difference absorption kinetic traces were recorded at different observation wavelengths (300 to 800 nm) and from these a transient absorption spectrum was constructed (FIG. 5A). […] In addition, two bands are observed at 320 and 440 nm, which are assigned to the triplet-triplet absorption of protoporphyrin IX. […] Triplet absorption kinetics at 440 nm may be utilized to obtain triplet quenching rate constants by the stabilizers. Triplet decay traces at 440 nm were recorded in the presence of different amounts of the alkoxy […], Formulas […])(1), and the mixture of II(b)(1) and II(c)(1). The decay traces were fitted to a first-order kinetics. The plot of these pseudo-first-order rate constants (inverse decay lifetime) vs. the concentration of the two compounds gives directly the bimolecular triplet quenching rate constant from the slope (FIG. 6). […]

[3] = Protoporphyrin IX fluorescence lifetime quenching (singlet excited state); details: acetonitrile
Experimental: Fluorescence lifetime measurements are a convenient way to measure singlet state quenching by stabilizers. Protoporphyrin IX decay traces were recorded in the absence and presence of compound I(a)(1) and alkoxy […] (FIG. 3). […] The collected data shown in FIG. 3 were used to determine the bimolecular quenching rate constant for singlet excited state quenching by the compounds. The quenching rate constant may be directly extracted from the slope of the plot of the inverse fluorescence lifetime vs. the concentration of the two compounds (FIG. 4). […] The biomolecular quenching rate constants for singlet excited state (kq^S) and triplet excited state (kq^T) quenching of PPIX by stabilizers in acetonitrile solutions at room temperature is shown in Table 4, as well and the Stern-Volmer rate constants.

[4] = 0.01 M in 0.1 M TBAP in DMSO, 200 mV/s

C=CC1=C(C)c2cc3[nH]c(cc4nc(cc5[nH]c(cc1n2)c(C)c5CCC(=O)O)C(CCC(=O)O)=C4C)c(C)c3C=C [protoporphyrin IX, reference compound]
first (or only) redox couple, oxidation peak [1, 4]: −610 mV
first (or only) redox couple, reduction peak [1, 4]: −1255 mV
second redox couple, reduction peak [1, 4]: ~−1741 mV
first (or only) redox couple, redox potential ([1]; estimated from the peaks): −932 mV
second redox couple, redox potential ([1]; estimated from the peaks): approximately −1446 mV
second redox couple, oxidation peak ([1]; the small peak where two are given): ~−1152 mV
triplet lifetime ([2]; air saturated DMSO, estimated from lifetime in air saturated acetonitrile): ~1 μs
triplet absorption lifetime ([2]; deoxygenated acetonitrile solution): 52 μs
fluorescence lifetime (singlet excited state lifetime) [3]: 13 ns and 12.7 ns

From patent publication US9611246B2, “Compositions, apparatus, systems, and methods for resolving electronic excited states” (HALLSTAR INNOVATIONS CORP., priority 2012, dated 2017)
